Experimental data from patent publication US5529984A (Bayer Aktiengesellschaft, priority 1993, dated 1996).

Assay: general procedure: solution-phase peptide synthesis; BOP-Cl / N,N-diisopropylethylamine
Settings: of theory

Substance | step yield (coupling step) | step yield (late stage modification step)
Bn-(L-MeLeu-D-Lac)2-OtBu | 96.0% of theory | 
Bn-(L-MeIle-D-Lac)2-OH |  | 100% of theory
Z-(L-MeIle-D-Lac)3-OH |  | 82.9% of theory
H-(L-MeLeu-D-PheLac)2-L-MeLeu-D-Lac-OtBu |  | 97% of theory
H-(L-MeIle-D-Lac)3-OH |  | 100% of theory
H-(L-MeLeu-D-Lac)2-OtBu |  | 100% of theory
Bn-(L-MeIle-D-Lac)2-L-MePhe-D-Lac-OtBu | 44.6% of theory | 
Z-(L-MeIle-D-Lac)3-OtBu | 77.4% of theory | 
